Assay: Stability of the bilayer membrane after DPcpvtN2 addition

HEESRTARVIRSTVFLFBRFIRGLDALSK [DPcpvtN2, domain peptide containing amino acids 410–438 of human RyR2, the central helix of the N-terminal region]
Dependence of median time to bilayer rupture on presence of RyR (1–2 μM DPcpvtN2): did not depend on the presence of RyR in the membrane | Effect on bilayer membrane (concentrations higher than 2 μM): induced rupture of the bilayer membrane

— PMC5492033, “The N-Terminal Region of the Ryanodine Receptor Affects Channel Activation” (Frontiers in Physiology, 2017)
